From PubChem BioAssay AID2685 (National Center for Advancing Translational Sciences (NCATS), 2010)
Some of the results follow. Shown are side measurements of this screen, not its main read-out; they come without a call. Most of these compounds were active or inconclusive in the main read-out, so they are no random draw. Potencies come from curve fits of mixed quality, noted in brackets.

Assay: qHTS Assay for Lipid Storage Modulators in Drosophila S3 Cells;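 for cell number change: cells counted by Cell Tracker Red CMTPX staining in the red channel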
Conditions: BODIPY lipid droplet fluorescence, 18-24 h; for cell number change: measured here: cell count max response, cells fed with added oleic acid
In short: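 Drosophila S3 cells loaded with oleic acid (400 uM, as added) and compounds at several concentrations; lipid droplets imaged by 488-nm laser-scanning cytometry, 500–530 nm intensity and object ratio to cell channel. Percent activity normalized to 20 uM Triacsin C.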

[1] = measured here: lipid fluorescence (Fed channel) AC50, cells fed with added oleic acid
[2] = measured here: cell number channel AC50, cells fed with added oleic acid

Row | Compound | cell number change | AC50 [1] | AC50 [2]
1 | CC(C)(C)c1nnc(NC(=O)C2CCN(c3ncccn3)CC2)s1 | 9.91% | 18.4 µM [rising, single point] | 
2 | COc1ccc(NC(=O)COC(=O)c2ccc(N3CCCC3=O)cc2)cc1OC | -14.6% | 29.1 µM [falling, single point] | 2.59 µM [rising, partial curve, poor fit]
3 | CC1CCN(C(=O)c2ccc([N+](=O)[O-])o2)CC1 | -22.2% | 29.1 µM [rising, single point] | 
4 | CCC(=O)c1ccccc1OCCCCn1cncn1 | 15.5% | 29.1 µM [rising, single point] | 
5 | CC(C)Nc1nc(Cl)nc(NNC(=O)C(C)Oc2ccccc2)n1 (stereo unspecified) | -17.5% |  | 
6 | CCc1ccc(C(=O)C(C)OC(=O)C2COc3ccccc3O2)cc1 (stereo unspecified) | 17.7% |  | 
7 | C=CCC(=O)N1CCC(n2nccc2NC(=O)CCOc2ccccc2)CC1 | -14.7% |  | 
8 | COC(=O)C1=C(C(=O)OC)[C@@H]2N(C)c3ccc(OC)cc3[C@@]23C[C@@H](C(=O)OC)N(S(=O)(=O)c2ccc([N+](=O)[O-])cc2)C3=N1 | 9.49% | 0.00411 µM [rising, full curve, poor fit] | 
9 | Cc1ccc(NC(=O)Cc2cccs2)cc1Cl | -11.6% | 1.64 µM [falling, partial curve, poor fit] | 
10 | COc1ccc(NC(=O)COC(=O)Cn2nnc3ccccc32)cc1 | -18.9% | 3.66 µM [falling, single point] | 0.092 µM [rising, full curve, poor fit]
11 | CCn1c2ccccc2c2cc(NC(=O)COc3ccccc3OC)ccc21 | 8.11% | 5.17 µM [rising, single point] | 
12 | Cc1cc(C)[n+](C)n1CC(O)Cn1c2ccccc2c2ccccc21 (stereo unspecified) | -6.01% |  | 
13 | O=S(=O)(Nc1cccc(-n2cnnn2)c1)c1ccc(Cl)nc1 | 20.1% |  | 
14 | Cc1cccc(-n2nc(C(=O)c3ccco3)cc(-c3nc4ccccc4[nH]3)c2=N)c1 | -51.4% | 5.8 µM [falling, full curve] | 4.61 µM [falling, full curve]
15 | CCN(CCO)C(=O)c1ccc2nc(Cc3cccc(Cl)c3)oc2c1 | -0.549% | 20.6 µM [rising, single point] | 
16 | Cc1ccc(Cl)cc1NC(=O)COC(=O)CN1C(=O)C2CCCCC2C1=O (stereo unspecified) | 17.9% | 25.9 µM [rising, partial curve] | 
17 | COCCNc1ccc(N2C(=O)C3CCCCC3C2=O)cc1[N+](=O)[O-] (stereo unspecified) | -43.4% |  | 23.1 µM [falling, single point]
18 | O=C(NCCc1ccccc1)C1CCC(=O)N(Cc2ccc(Cl)cc2)C1 (stereo unspecified) | 46.7% |  | 20.6 µM [rising, partial curve, poor fit]
19 | CN(Cc1ccc(Cl)cc1Cl)C(=O)CN1C(=O)NC2(CCCC2)C1=O | -14% | 0.0651 µM [rising, full curve, poor fit] | 
20 | CN(Cc1c(C(=O)N/N=C/c2ccccc2)nnn1-c1nonc1N)c1ccccc1 |  | 0.231 µM [falling, full curve, poor fit] | 
21 | COc1ccc(-n2c(C)cc(C)c(C(C)=O)c2=S)cc1 | 13.1% | 7.31 µM [falling, partial curve, poor fit] | 

Row | Compound | cell number change | AC50 [1] | AC50 [2]
22 | CCC(C(=O)NCCN1CCOCC1)n1nc(C)n2c(cc3sccc32)c1=O (stereo unspecified) | -9.73% | 0.58 µM [rising, single point] | 
23 | O=C(COC(=O)C1CCN(S(=O)(=O)c2ccc3c(c2)OCCO3)CC1)NC1CCS(=O)(=O)C1 (stereo unspecified) | 6.14% | 0.231 µM [falling, full curve] | 
24 | COc1ccc(OC(=O)c2cn(C)nc2C(F)(F)F)cc1 | -11.8% | 3.66 µM [falling, single point] | 
25 | CCOc1ccc(OCCSc2nc3ccccc3o2)cc1 | -5.58% | 6.51 µM [falling, single point] | 
26 | O=C(O)c1cc(NN=C2CCN(Cc3ccccc3)CC2)ccc1Cl | 11.8% |  | 
27 | Cc1ccc(-c2csc3nc4c5ccccc5c(NCCCN(C)C)nn4c(=O)c23)cc1 | -30.3% |  | 0.00517 µM [falling, full curve, poor fit]
28 | O=C(Nc1nc2ccccc2[nH]1)Nc1ccccc1F | 9.66% | 6.51 µM [rising, single point] | 
29 | Cc1ccc(OCCNC(=O)c2ccc(C)cc2)cc1 | 11.3% | 18.4 µM [rising, single point] | 
30 | COc1ccc(N(C)S(=O)(=O)c2cccc(C(=O)Nc3nc4ccccc4[nH]3)c2)cc1 |  | 3.26 µM [rising, single point] | 
31 | N#Cc1cn(CC(=O)N2CCCC2)c2ccccc12 |  |  | 2.31 µM [falling, partial curve, poor fit]
32 | CCCn1c(C)cc(C(=O)COC(=O)c2ccc[nH]c2=O)c1C | -5.02% | 6.51 µM [falling, single point] | 
33 | CN(C)S(=O)(=O)N1CCC(CCCC2CCN(S(=O)(=O)N(C)C)CC2)CC1 | -33.7% |  | 
34 | Cc1ccccc1N(C(=O)Cc1cccs1)C(C(=O)NC1CCCCC1)c1cn(C)nc1C (stereo unspecified) | 6.67% | 23.1 µM [falling, single point] | 4.61 µM [falling, single point]
35 | CC(C)CCNc1nc2c(c(=O)n(Cc3cccc(F)c3)c(=O)n2C)n1C | 7.64% | 1.03 µM [rising, partial curve] | 6.51 µM [rising, single point]
36 | Cc1csc(NC(=O)NC2(C(F)(F)F)Oc3ccccc3O2)n1 |  | 0.092 µM [falling, full curve, poor fit] | 
37 | O=C(/C=C/c1ccccc1)c1ccccc1 | 9.27% | 29.1 µM [falling, single point] | 
38 | Nc1cnc(CNc2ccccc2Cl)cn1 | 18.8% | 0.00461 µM [falling, full curve, poor fit] | 
39 | Cc1cccc(-n2c(SCC(=O)NCC3CCCO3)nc3ccccc3c2=O)c1C (stereo unspecified) | 4.6% |  | 
40 | O=C1/C(=C/c2ccc(O)c([N+](=O)[O-])c2)SC(=S)N1Cc1ccccc1 | -15.9% | 0.58 µM [falling, full curve] | 
41 | O=C(O)CCCn1cc(NC(=O)COc2cccc(Cl)c2)cn1 | 1.66% | 29.1 µM [rising, single point] | 
42 | CCCn1nnnc1SCC(=O)NCc1ccc(OC)cc1 | 1.55% | 32.6 µM [falling, single point] | 

Row | Compound | cell number change | AC50 [1] | AC50 [2]
43 | Cc1ccccc1N1C(=O)c2ccccc2C1Nc1cccnc1 (stereo unspecified) | -16% | 23.1 µM [falling, single point] | 
44 | O=C(CCCl)Nc1nnc(SCC(=O)NC2CCCC2)s1 | 16.7% | 1.3 µM [falling, partial curve] | 
45 | COc1ccc(/C=C/C(=O)NC(=S)Nc2ccc(C(=O)O)cc2)cc1 | -10.1% |  | 
46 | CCCCC1(C)OC(=O)C(=Cc2ccc(N(C)C)cc2)C(=O)O1 (stereo unspecified) | 0.486% | 6.51 µM [rising, single point] | 
47 | CC(C)(CNC(=O)Cc1ccc(Cl)cc1Cl)N1CCOCC1 | 10.4% | 23.1 µM [rising, partial curve, poor fit] | 
48 | CCOC(=O)c1ccc(NC(=S)N2CCC(O)CC2)cc1 | 22.2% |  | 
49 | O=C(CCN1C(=O)/C(=C/c2ccccc2)SC1=S)NC1CCS(=O)(=O)C1 (stereo unspecified) | 2.36% |  | 
50 | COc1ccc(S(=O)(=O)N2CCC(C(=O)NCCC3=CCCCC3)CC2)cc1OC | -11.3% | 0.291 µM [falling, full curve] | 0.0651 µM [falling, full curve]
51 | CC1(C)C(N(O)C(=O)Nc2ccccc2)N(c2cccc(Cl)c2)C(=O)N1O (stereo unspecified) | 3.16% | 5.8 µM [falling, single point] | 
52 | N#CCCN1CCN(Cn2c3ccccc3c3ccccc32)CC1 | 7.92% | 29.1 µM [rising, single point] | 
53 | Cc1coc(C)c1C(=O)CC1(O)C(=O)N(Cc2ccccc2)c2ccccc21 (stereo unspecified) | 64.3% | 29.1 µM [falling, single point] | 9.2 µM [rising, partial curve]
54 | COc1ccc2c(c1)C(=O)[C@@H](O)[C@H](c1ccc(OC)c(Br)c1)O2 | 33.9% | 16.4 µM [rising, partial curve] | 16.4 µM [rising, single point]
55 | O=C(c1ccc(-c2cccc(Cl)c2Cl)o1)N1CCOCC1 | -25.1% | 0.0731 µM [falling, full curve, poor fit] | 0.0651 µM [falling, full curve, poor fit]
56 | COc1cc(NC(=O)C2=CC(c3cccs3)=NS(=O)(=O)N2C)cc(OC)c1OC | -30.5% |  | 0.164 µM [falling, full curve, poor fit]
57 | Cc1cc(C)cc(C(=O)OCC(=O)NC(=O)NC2CCCC2)c1 | -43.2% |  | 23.1 µM [falling, single point]
58 | O=C(Cc1ccsc1)NCc1ccccc1F | 21.1% | 29.1 µM [rising, single point] | 
59 | O=C(CSc1n[nH]c(-c2cccnc2)n1)Nc1ccccc1C(F)(F)F | 20.6% | 29.1 µM [rising, single point] | 
60 | CC(C)CN(C(=O)CSc1nnnn1-c1ccccc1)c1c(N)n(CC(C)C)c(=O)[nH]c1=O |  |  | 1.64 µM [rising, single point]
61 | Cc1ccc(-n2ncc3ccccc3c2=O)cc1Cl |  |  | 3.66 µM [rising, single point]
62 | CNc1ccccc1C(C)(C)c1cc(-c2cc(C)cc(C)c2)no1 | -9.86% | 29.1 µM [falling, single point] | 

Of the compounds above, 2 have a cyano group:
Row | Compound | cell number change | AC50 [1] | AC50 [2]
31 | N#Cc1cn(CC(=O)N2CCCC2)c2ccccc12 |  |  | 2.31 µM [falling, partial curve, poor fit]
52 | N#CCCN1CCN(Cn2c3ccccc3c3ccccc32)CC1 | 7.92% | 29.1 µM [rising, single point] | 
